For orientation: IC50 means the point on the concentration scale where inhibition reaches its midpoint.

Experiment [1] concerns MDA-MB-231 cells. Nature of the experiment: CellTiter-Glo cell viability, MDA-MB-231. It is filed as cell-based. To be noted: 72 h, read-out: Absolute IC50. Here is the method: (§1) The cell viability of 50 cancer cell lines was studied after treatment with Compound 121. Inhibition concentration values at 50% (IC50) were determined using CellTiter-Glo luminescent cell viability assay after incubation with different compound concentrations. GI50 values were determined according to the examples described above. Each cell line was treated with Compound 121, a standard chemotherapy drug as a reference control, and culture medium as a vehicle control.
(§2) All cells were cultured in media supplemented with 10-15% FBS at 37° C. in the presence of 5% CO2 and at 95% humidity. The culture medium was purchased from GIBCO or Sigma, USA. Cisplatin was chosen as the reference control and purchased from Hospira Australia Pty Ltd. The cell lines studied are presented in Table 5.
(§3) Cells were harvested during a logarithmic growth period and cell number count was determined using Count-star. Cell concentrations were adjusted to 4.44×10^4 cells/mL with respective culture medium. […]
(§4) 10 μL of culture medium was added to each well of plate A for TO reading. […]
(§5) IC50 and GI50 values for each of the 50 cell lines are presented in Table 6 and were calculated based on the dose-response curves depicted in FIGS. 1-50. […] The formula for calculating survival rate was calculated by the formula: […]

The subject of experiment [2] is HeLa cells. Nature of the experiment: CellTiter-Glo cell viability, HeLa. To be noted: 72 h, read-out: Absolute IC50. It is filed as cell-based. How it is done:
as §1, §2, §3, §4, §5
On the technique in general: Cellular ATP, detected with luciferase, serves as a proxy for viable cell number.

Take `N.N.[Cl][Pt][Cl]` [Cisplatin, reference compound]: the half-inhibitory concentration (IC50) in experiment [1] came out at 23.7 µM; in experiment [2] it was 0.33 µM.

These data come from patent US20210196724A1, “BIARYL COMPOSITIONS AND METHODS FOR MODULATING A KINASE CASCADE” (Athenex, Inc., priority 2016, published 2021).
